Drawing on article PMC11338267, “Phosphoglycerate kinase is a central leverage point in Parkinson’s disease–driven neuronal metabolic deficits” (Science Advances, 2024), this text covers binding for one substance.

Sequences of proteins named here, by UniProt entry; tags and fusion partners are left off.
UniProt Q99497: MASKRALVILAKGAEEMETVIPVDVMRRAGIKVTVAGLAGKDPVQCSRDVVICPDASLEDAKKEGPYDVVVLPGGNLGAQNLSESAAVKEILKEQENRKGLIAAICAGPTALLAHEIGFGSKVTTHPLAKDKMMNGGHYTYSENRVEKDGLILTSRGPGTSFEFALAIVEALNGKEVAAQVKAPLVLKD

In this test the target is T1, PGK1-HA (UniProt P00558).
T1 sequence: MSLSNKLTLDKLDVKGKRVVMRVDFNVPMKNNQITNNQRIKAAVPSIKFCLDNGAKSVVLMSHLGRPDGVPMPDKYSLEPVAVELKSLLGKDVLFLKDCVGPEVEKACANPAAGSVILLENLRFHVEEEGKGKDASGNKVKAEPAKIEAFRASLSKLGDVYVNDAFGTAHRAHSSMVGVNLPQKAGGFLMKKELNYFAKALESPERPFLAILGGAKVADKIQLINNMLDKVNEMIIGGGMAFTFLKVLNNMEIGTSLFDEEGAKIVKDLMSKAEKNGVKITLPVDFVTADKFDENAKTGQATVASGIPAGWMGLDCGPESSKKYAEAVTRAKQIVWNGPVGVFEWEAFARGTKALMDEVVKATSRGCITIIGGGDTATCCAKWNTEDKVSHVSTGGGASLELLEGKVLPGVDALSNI
Kind of test: co-IP; from human embryonic kidney cells with Pierce Anti-HA Agarose; Western blotting. (A western blot detects proteins with antibodies after separation by electrophoresis.)

These are yes or no findings as the source states them, for the method shown. Binding seen in cells or lysates may run through a third protein. Some binding calls cover weakened binding; strength is not graded here. Sequences can lack the tags named with a protein.

As for “DJ-1 in human embryonic kidney-293T cells (from UniProt Q99497 1-189)”, the binding result is “binds”.
